# In US20200163913A1 (Shanghai Huali Biomedical Co., Ltd., priority 2017, published 2020):
# Some entries share one result that the patent states for a list of compounds.
# How the values were obtained:
# [1] = system: human gastric cancer cell MKN45; assay: CCK-8 cell proliferation inhibition, MKN45; format: cell-based; conditions: listed as (Z)-3,4,5-trimethoxy-4′-ethoxy-3′-aminosulfamatestilbene
# Protocol: (§1) Take more than 90% of live cells for experiments. Cell proliferation inhibition test uses EnoGeneCell™ Counting Kit-8 (CCK-8) cell viability detection kit. Cells are digested and counted to make a cell suspension with a concentration of 1×10^5 cells/mL, 100 μL of cell suspension (1×10^4 cells per well) was added to each well of a 96-well plate; Incubate in a 5% CO2 incubator for 24 hours; add 100 μL of the corresponding drug-containing culture medium to each well, and set a negative control group, a vehicle control group, and a positive control group, with 5 replicates in each group; place the 96-well plate at 37° C.
# [2] = system: human gastric cancer cell MGC-803; assay: CCK-8 cell proliferation inhibition, MGC-803; format: cell-based; conditions: listed as (Z)-3,4,5-trimethoxy-4′-ethoxy-3′-aminosulfamatestilbene; read-out: IC50 MGC803
# Protocol: as §1
smiles,measurement,setting,value
"CCOc1ccc(/C=C\c2cc(OC)c(OC)c(OC)c2)cc1OS(N)(=O)=O [Compound A2-1, (Z)-3,4,5-trimethoxy-4′-ethoxy-3′-sulfamate stilbene]",IC50,[1],< 600 nM
same,IC50,[2],< 600 nM
